Results taken from article PMC3969220, “N-terminus oligomerization is conserved in intracellular calcium release channels” (Biochemical Journal, 2014).
These are yes or no findings as the source states them, for the method shown. For some of these results: Binding seen in cells or lysates may run through a third protein. Some results given as binding are weak or reduced against the parent protein; the word gives no strength.

Sequences of proteins named here, by UniProt entry; tags and fusion partners are left off. Residues count along the entry.
UniProt Q92736, residues 1-906: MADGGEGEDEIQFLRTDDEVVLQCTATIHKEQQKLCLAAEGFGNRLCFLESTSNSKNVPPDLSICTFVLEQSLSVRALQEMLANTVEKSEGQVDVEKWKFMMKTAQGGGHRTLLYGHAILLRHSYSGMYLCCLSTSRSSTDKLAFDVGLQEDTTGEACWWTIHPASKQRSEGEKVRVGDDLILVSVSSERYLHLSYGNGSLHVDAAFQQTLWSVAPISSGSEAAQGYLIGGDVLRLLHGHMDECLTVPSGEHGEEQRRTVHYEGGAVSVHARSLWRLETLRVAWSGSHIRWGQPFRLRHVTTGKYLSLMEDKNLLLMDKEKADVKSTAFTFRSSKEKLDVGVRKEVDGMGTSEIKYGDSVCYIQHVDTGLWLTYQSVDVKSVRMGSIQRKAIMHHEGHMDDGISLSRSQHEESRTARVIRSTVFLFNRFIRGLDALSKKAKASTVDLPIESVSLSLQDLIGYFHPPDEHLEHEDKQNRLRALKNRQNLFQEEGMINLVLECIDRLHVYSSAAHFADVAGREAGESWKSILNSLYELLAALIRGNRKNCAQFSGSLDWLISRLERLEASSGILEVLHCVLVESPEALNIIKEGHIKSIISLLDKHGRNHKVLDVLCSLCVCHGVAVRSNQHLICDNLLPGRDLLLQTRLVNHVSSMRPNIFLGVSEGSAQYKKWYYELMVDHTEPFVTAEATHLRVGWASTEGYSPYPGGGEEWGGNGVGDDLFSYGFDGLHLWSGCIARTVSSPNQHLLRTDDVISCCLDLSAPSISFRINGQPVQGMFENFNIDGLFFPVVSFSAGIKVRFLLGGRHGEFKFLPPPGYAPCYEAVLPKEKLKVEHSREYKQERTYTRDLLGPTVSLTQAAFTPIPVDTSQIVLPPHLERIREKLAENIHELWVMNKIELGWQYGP

B1: c-Myc-tagged RyR3 N-terminal fragment (residues 1–911), BT4LR3, in HEK-293 cells (domain or fragment, rabbit, UniProt Q9TS33 1-911, looked up)
chain: MAEGGEGGEDEIQFLRTEDEVVLQCIATVHKEQRKFCLAAEGLGNRLCFLEPTSEAKFIPPDLCVCNFVLEQSLSVRALQEMLANTGENGGEGAAQGGGHRTLLYGHAILLRHSFSGMYLTCLTTSRSQTDKLAFDVGLREHATGEACWWTIHPASKQRSEGEKVRIGDDLILVSVSSERYLHLSISNGNIQVDASFMQTLWNVHPTCSGSSIEEGYLLGGHVVRLFHGHDECLTIPSTDQNDSQHRRIFYEAGGAGTRARSLWRVEPLRISWSGSNIRWGQAFRLRHLTTGHYLALTEDQGLLLQDRGKADTKSTAFSFRPSKETKEKLDSSHKRDIEGMGVPEIKYGDSVCFVQHIASGLWVTYKAQDAKTSRLGPLKRKVILHQEGHMDDGLTLQRCQREESQAARIIRNTTALFSQFVSGNNRTAAPVTLPIEEVLQTLHDLIAYFQPPEEEMQHEDKQNKLRSLKNRQNLFKEEGMLALVLNCIDRLNIYNSVAHFAGIAREESGMAWKEVLSLLYKLLAALIRGNRNTCAQFSNNLDWLISKLDRLESSSGILEVLHCILIESPEALNLIAEGHIKSIISLLDKHGRNHKVLDVLCSLCLCNGVAVRANQNLICDNLLPRRNLLLQTRLINDVTSIRPNIFLGVAEGSAQYKKWYFELIIDQVDPFLTAEPTHLRVGWASSSGYAPYPGGGEGWGGNGVGDDLYSYGFDGLHLWSGRIPRAVASINQHLLKSDDVVSCCLDLGVPSISFRINGQPVQGMFENFNTDGLFFPVMSFSAGVKVRFLMGGRHGEFKFLPPSGYAPCYEALLPKEKMRLEPVKEYKRDAEGVRDLLGTTQFLSQASFIPCPIDTSQVVLPPHLEKIRDRLAENIHELWGMNKIELGWTFGKMRDDNKRQHPCLVEFSKL
notes: ryanodine receptor 3 (RyR3), rabbit, residues 1-911; also called c-Myc–BT4LR3
B2: c-Myc-tagged RyR1 N-terminal fragment (residues 1–915), BT4LR1, in HEK-293 cells (domain or fragment, rabbit, UniProt P11716 1-915, looked up)
chain: MGDGGEGEDEVQFLRTDDEVVLQCSATVLKEQLKLCLAAEGFGNRLCFLEPTSNAQNVPPDLAICCFTLEQSLSVRALQEMLANTVEAGVESSQGGGHRTLLYGHAILLRHAHSRMYLSCLTTSRSMTDKLAFDVGLQEDATGEACWWTMHPASKQRSEGEKVRVGDDLILVSVSSERYLHLSTASGELQVDASFMQTLWNMNPICSCCEEGYVTGGHVLRLFHGHMDECLTISAADSDDQRRLVYYEGGAVCTHARSLWRLEPLRISWSGSHLRWGQPLRIRHVTTGRYLALTEDQGLVVVDACKAHTKATSFCFRVSKEKLDTAPKRDVEGMGPPEIKYGESLCFVQHVASGLWLTYAAPDPKALRLGVLKKKAILHQEGHMDDALFLTRCQQEESQAARMIHSTAGLYNQFIKGLDSFSGKPRGSGPPAGPALPIEAVILSLQDLIGYFEPPSEELQHEEKQSKLRSLRNRQSLFQEEGMLSLVLNCIDRLNVYTTAAHFAEYAGEEAAESWKEIVNLLYELLASLIRGNRANCALFSTNLDWVVSKLDRLEASSGILEVLYCVLIESPEVLNIIQENHIKSIISLLDKHGRNHKVLDVLCSLCVCNGVAVRSNQDLITENLLPGRELLLQTNLINYVTSIRPNIFVGRAEGSTQYGKWYFEVMVDEVVPFLTAQATHLRVGWALTEGYSPYPGGGEGWGGNGVGDDLYSYGFDGLHLWTGHVARPVTSPGQHLLAPEDVVSCCLDLSVPSISFRINGCPVQGVFEAFNLDGLFFPVVSFSAGVKVRFLLGGRHGEFKFLPPPGYAPCHEAVLPRERLRLEPIKEYRREGPRGPHLVGPSRCLSHTDFVPCPVDTVQIVLPPHLERIREKLAENIHELWALTRIEQGWTYGPVRDDNKRLHPCLVNFHSLPE
notes: ryanodine receptor 1 (RyR1), rabbit, residues 1-915; also called c-Myc–BT4LR1

Experiments:
[1] = molecular target: RyR1 N-terminal fragment (residues 1–915), yeast two-hybrid fusions BT4LR1 / AD4LR1 (rabbit) (UniProt P11716); assay: two-hybrid; yeast Y190 co-transformed with GAL4 DNA-BD (BT4LR1/2/3) and GAL4 AD (AD4LR1/2/3) fusions; quantitative liquid β-galactosidase assays (n=5), normalized against the positive control pair pVA3+pTD1
[2] = molecular target: RyR2 N-terminal fragment (residues 1–906), yeast two-hybrid fusions BT4LR2 / AD4LR2 (human) (UniProt Q92736); assay: as above
[3] = molecular target: RyR3 N-terminal fragment (residues 1–911), yeast two-hybrid fusions BT4LR3 / AD4LR3 (rabbit) (UniProt Q9TS33); assay: as above
[4] = molecular target: HA-tagged RyR2 N-terminus (residues 1–906), AD4LR2, in HEK-293 cells (human) (UniProt Q92736); assay: co-IP; HEK-293 cells co-expressing HA-AD4LR2 and c-Myc-BT4LR1/3; anti-HA immunoprecipitation from CHAPS-solubilized lysates pre-treated with or without 10 mM DTT; anti-c-Myc Western blot

Molecule | binding [1] | binding [2] | binding [3] | binding [4]
RyR3 N-terminal fragment (residues 1–911), yeast two-hybrid fusions BT4LR3 / AD4LR3 (from UniProt Q9TS33 1-911) (domain or fragment) | binds weakly | binds weakly | binds weakly | –
RyR2 N-terminal fragment (residues 1–906), yeast two-hybrid fusions BT4LR2 / AD4LR2 (from UniProt Q92736 1-906) (domain or fragment) | – | binds | – | –
RyR1 N-terminal fragment (residues 1–915), yeast two-hybrid fusions BT4LR1 / AD4LR1 (from UniProt P11716 1-915) (domain or fragment) | – | binds | – | –
B1 | – | – | – | binds
B2 | – | – | – | binds
